Assay results published in PubChem BioAssay (NCATS).
This list was built around the results that the source calls inconclusive (neither active nor inactive); the mix of calls is not that of the screen. A potency beside an inconclusive call is a rough fit, not a confirmed value. Activity calls are given as the source filed them. Calls come from the whole dose curve; as a rule, active = well fitted cell-killing curve with a large enough effect; inconclusive = small, poorly fitted or top-dose-only effect, or effect the other way; inactive = no such curve, though single readings can be large or run the other way.

Columns and labels:
[1] = Quantitative High-Throughput drug screen in 47 multiple myeloma cell lines against the NCATS MIPE library collection: JJN3_DSMZ cell viability assay (AID 1918966; note: nearly all actives have a fitted effect of over 50% in size)
Method in brief: (§1)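 Myeloma cells (500 per well) were exposed to MIPE 4.0 compounds by pin transfer and incubated 48 hours at 37C, 5% CO2. Viability was read as ATP by CellTiter-Glo luminescence, normalised to DMSO (100%) and media-only (0%) wells.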

[2] = Quantitative High-Throughput drug screen in 47 multiple myeloma cell lines against the NCATS MIPE library collection: KMS12BM_JCRB cell viability assay (AID 1918971); note: nearly all actives have a fitted effect of over 35% in size
Method in brief: (§2)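 CellTiter-Glo luminescence (ATP) after 48 h compound exposure, 37C/5% CO2; 500 cells/well; MIPE 4.0 approved/investigational drugs pinned in; DMSO = 100%, media only = 0% viability.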

[3] = Quantitative High-Throughput drug screen in 47 multiple myeloma cell lines against the NCATS MIPE library collection: KMS20_JCRB cell viability assay (AID 1918973); conditions: CellTiter-Glo ATP, 48 h; viability (% of DMSO): at 45.8 µM (top of the series); note: nearly all actives have a fitted effect of over 45% in size
Method in brief: as §1

[4] = Quantitative High-Throughput drug screen in 47 multiple myeloma cell lines against the NCATS MIPE library collection: KMS21BM_JCRB cell viability assay (AID 1918974); conditions: ATP luminescence, 48 h; viability: at 45.8 µM (top of the series) unless noted
Method in brief: as §1

[5] = Quantitative High-Throughput drug screen in 47 multiple myeloma cell lines against the NCATS MIPE library collection: KMS26_JCRB cell viability assay (AID 1918975); conditions: KMS26 myeloma cells viability, CellTiter-Glo ATP, 48 h; viability (% of DMSO): at 45.8 µM (top of the series); note: nearly all actives have a fitted effect of over 45% in size
Method in brief: as §2

[6] = Quantitative High-Throughput drug screen in 47 multiple myeloma cell lines against the NCATS MIPE library collection: KMS27_JCRB cell viability assay (AID 1918970); conditions: KMS27 myeloma cells, CellTiter-Glo ATP viability, 48 h; viability (% of DMSO): at 45.8 µM (top of the series) unless noted; note: nearly all actives have a fitted effect of over 30% in size
Method in brief: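 Viability inhibition screen, 48 h compound exposure, luminescent ATP read-out.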

[7] = Quantitative High-Throughput drug screen in 47 multiple myeloma cell lines against the NCATS MIPE library collection: KMS12PE_JCRB cell viability assay (AID 1918972); conditions: KMS12PE myeloma viability, CellTiter-Glo ATP, 48 h; viability: at 45.8 µM (top of the series); note: nearly all actives have a fitted effect of over 30% in size
Method in brief: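 Viability readout: CellTiter-Glo luminescence following 5 min room-temperature incubation with reagent. Prior exposure: 48 h, 37C, humidified 5% CO2, 500 cells per well.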

[8] = Quantitative High-Throughput drug screen in 47 multiple myeloma cell lines against the NCATS MIPE library collection: Karpas25_ECACC cell viability assay (AID 1918968; note: nearly all actives have a fitted effect of over 35% in size); conditions: Karpas25 myeloma viability, CellTiter-Glo ATP, 48 h; series mostly up to 45.8 µM
Method in brief: as §1

[9] = Quantitative High-Throughput drug screen in 47 multiple myeloma cell lines against the NCATS MIPE library collection: MMM1_PLB cell viability assay (AID 1918976); note: nearly all actives have a fitted effect of over 35% in size
Method in brief: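 Cells were exposed to library compounds for 48 hours, after which ATP was measured by CellTiter-Glo. Signal was taken as median relative luminescence units.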
Potency is the fitted concentration of half-maximal effect.

Row | SMILES | Potency [1] | Potency [2] | Potency [3] | Potency [4] | Potency [5] | Potency [6] | Potency [7] | Potency [8] | Potency [9]
1 | Cc1ncc(-c2ccnc(Nc3ccc(S(C)(=O)=O)cc3)n2)n1C(C)C | active: 2.09 µM | active: 4.18 µM | active: 2.35 µM | inconclusive: 37.2 µM [rising, partial curve, poor fit] | active: 2.64 µM | – | – | – | –
2 | COc1ccc(S(=O)(=O)Nc2cccnc2Nc2ccc(O)cc2)cc1 | active: 1.32 µM | active: 0.0743 µM | – | inconclusive: 2.09 µM [cytotoxic, full curve, poor fit] | active: 2.64 µM | inconclusive: 0.187 µM [cytotoxic, full curve, poor fit] | inconclusive: 0.59 µM [cytotoxic, full curve, poor fit] | – | –
3 | NC(=O)Nc1cc(-c2ccc(CN3CCOCC3)cc2)sc1C(N)=O | active: 1.18 µM | – | active: 2.64 µM | active: 1.32 µM | active: 23.5 µM | inconclusive: 6.62 µM [cytotoxic, partial curve, poor fit] | – | active: 1.32 µM | active: 6.62 µM
4 | Nc1nc2c(c(=O)[nH]1)N(C=O)[C@H](CNc1ccc(C(=O)N[C@@H](CCC(=O)O)C(=O)O)cc1)CN2 | inconclusive: 0.0526 µM [rising, full curve, poor fit] | inactive | inconclusive: 26.4 µM [rising, single point] | – | inconclusive: 0.0015 µM [rising, full curve, poor fit] | – | – | inactive | inconclusive: 0.0059 µM [rising, full curve]
5 | O=C(NCC1CN(c2ccc(N3CCOCC3=O)cc2)C(=O)O1)c1ccc(Cl)s1 (configuration not stated) | inconclusive: 0.0023 µM [rising, full curve, poor fit] | inactive | inconclusive: 0.0059 µM [rising, full curve, poor fit] | inconclusive: 23.5 µM [cytotoxic, partial curve, poor fit] | inactive | inconclusive: 23.5 µM [cytotoxic, single point] | inconclusive: 20.9 µM [cytotoxic, partial curve] | – | inconclusive: 18.7 µM [cytotoxic, partial curve, poor fit]
6 | c1ccc2c(CCNc3ccc(Nc4ccncc4)cc3)c[nH]c2c1 | active: 20.9 µM | – | – | inconclusive: 29.6 µM [rising, partial curve, poor fit] | inconclusive: 14.8 µM [cytotoxic, partial curve, poor fit] | – | active: 5.26 µM | active: 20.9 µM | active: 13.2 µM
7 | Cn1cnc([N+](=O)[O-])c1Sc1ncnc2nc[nH]c12 | inconclusive: 16.6 µM [cytotoxic, partial curve, poor fit] | inactive | inconclusive: 16.6 µM [cytotoxic, partial curve, poor fit] | – | – | – | inconclusive: 1.32 µM [cytotoxic, full curve] | – | inconclusive: 0.0083 µM [rising, full curve]
8 | OCCN1C[C@H](O)[C@@H](O)[C@H](O)[C@@H]1CO | inconclusive: 0.0209 µM [rising, full curve, poor fit] | inactive | – | – | – | – | – | inactive | inconclusive: 0.0166 µM [rising, full curve, poor fit]
9 | CCc1cc(Nc2nccc(-c3c(-c4ccc(OC)c(C(=O)Nc5c(F)cccc5F)c4)nc4ccccn34)n2)c(OC)cc1N1CCC(N2CCN(S(C)(=O)=O)CC2)CC1 | inconclusive: 0.105 µM [cytotoxic, full curve, poor fit] | inconclusive: 14.8 µM [cytotoxic, partial curve, poor fit] | inconclusive: 10.5 µM [cytotoxic, partial curve, poor fit] | – | inconclusive: 4.18 µM [cytotoxic, partial curve, poor fit] | inconclusive: 37.2 µM [cytotoxic, single point] | inconclusive: 1.18 µM [cytotoxic, full curve] | – | inconclusive: 18.7 µM [cytotoxic, partial curve, poor fit]
10 | NC(=O)c1cccc(N)c1 | inconclusive: 0.0033 µM [rising, full curve, poor fit] | inconclusive: 0.0019 µM [rising, full curve, poor fit] | inactive | – | – | inconclusive: 0.0053 µM [cytotoxic, full curve, poor fit] | inactive | – | inconclusive: 0.0042 µM [rising, full curve]
11 | COc1ccc(C2CNC(=O)C2)cc1OC1CCCC1 (configuration not stated) | inconclusive: 11.8 µM [rising, single point] | inactive | inactive | inconclusive: 0.118 µM [rising, full curve, poor fit] | inactive | – | – | inconclusive: 33.2 µM [cytotoxic, single point] | inconclusive: 0.003 µM [rising, full curve, poor fit]
12 | O=C(CCCN1CCN(c2ccc(F)cc2)CC1)NC1c2ccccc2CSc2ccccc21 (configuration not stated) | inconclusive: 14.8 µM [cytotoxic, partial curve, poor fit] | active: 11.8 µM | inconclusive: 5.26 µM [cytotoxic, full curve, poor fit] | inconclusive: 29.6 µM [rising, partial curve, poor fit] | inconclusive: 3.32 µM [cytotoxic, full curve, poor fit] | active: 5.9 µM | active: 4.18 µM | – | –
13 | O=C(c1ccc(C(=O)N2CCC(N3CCCC3)CC2)c(Nc2ccccc2)c1)N1CCC(N2CCCC2)CC1 | inconclusive: 3.32 µM [cytotoxic, full curve, poor fit] | inconclusive: 7.43 µM [cytotoxic, partial curve, poor fit] | – | inactive | inconclusive: 1.87 µM [cytotoxic, full curve, poor fit] | inactive | – | – | inconclusive: 4.18 µM [cytotoxic, full curve, poor fit]
14 | O=C(O)c1ccc(Nc2ncc3c(n2)-c2ccc(Cl)cc2C(c2c(F)cccc2F)=NC3)cc1 | active: 3.72 µM | active: 0.296 µM | – | active: 0.743 µM | inconclusive: 9.35 µM [cytotoxic, partial curve, poor fit] | – | inconclusive: 0.209 µM [cytotoxic, full curve] | – | inactive
15 | C[C@H](NC(=O)C(C#N)=Cc1cccc(Br)n1)c1ccccc1 | active: 4.18 µM | active: 4.69 µM | active: 2.35 µM | inconclusive: 2.96 µM [cytotoxic, full curve, poor fit] | – | – | – | – | –
16 | CCN1CCN(CC(=O)Nc2ccc(-c3cccc4c(=O)cc(N5CCOCC5)oc34)c3sc4ccccc4c23)CC1 | active: 3.72 µM | – | – | inconclusive: 0.187 µM [cytotoxic, full curve, poor fit] | active: 1.32 µM | active: 0.418 µM | active: 2.35 µM | – | –
17 | Nc1cccc2c1C(=O)N(C1CCC(=O)NC1=O)C2=O (configuration not stated) | inconclusive: 0.0074 µM [cytotoxic, full curve, poor fit] | inconclusive: 0.0021 µM [cytotoxic, full curve, poor fit] | – | inconclusive: 37.2 µM [rising, partial curve] | inconclusive: 5.26 µM [cytotoxic, partial curve, poor fit] | – | inactive | active: 8.33 µM | inconclusive: 11.8 µM [cytotoxic, partial curve, poor fit]
18 | CCOC(=O)[C@H](CCc1ccccc1)N[C@H]1CS[C@H](c2cccs2)CN(CC(=O)O)C1=O | active: 16.6 µM | active: 23.5 µM | active: 1.66 µM | active: 0.132 µM | – | – | – | – | –
19 | CCN[C@H]1C[C@H](C)S(=O)(=O)c2sc(S(N)(=O)=O)cc21 | inconclusive: 0.0833 µM [cytotoxic, full curve, poor fit] | inactive | inactive | inconclusive: 4.69 µM [cytotoxic, partial curve, poor fit] | inactive | – | – | – | inconclusive: 4.18 µM [cytotoxic, full curve, poor fit]
20 | CC(C(=O)O)c1ccc2c(c1)CC(=O)c1ccccc1S2 (configuration not stated) | inconclusive: 0.0074 µM [rising, full curve, poor fit] | inactive | inconclusive: 11.8 µM [rising, partial curve, poor fit] | active: 0.264 µM | inconclusive: 2.09 µM [rising, full curve, poor fit] | inconclusive: 0.132 µM [cytotoxic, full curve, poor fit] | inconclusive: 4.18 µM [cytotoxic, full curve, poor fit] | – | inconclusive: 4.69 µM [rising, partial curve, poor fit]
21 | CCCCCCNC(=O)n1cc(F)c(=O)[nH]c1=O | active: 23.5 µM | – | inactive | active: 0.332 µM | inconclusive: 11.8 µM [cytotoxic, partial curve, poor fit] | inconclusive: 9.35 µM [cytotoxic, partial curve, poor fit] | inconclusive: 14.8 µM [cytotoxic, partial curve, poor fit] | – | inconclusive: 8.33 µM [cytotoxic, partial curve, poor fit]

Part of the list above, tab-delimited:
Row	SMILES	Potency [1]	Potency [2]	Potency [3]	Potency [4]	Potency [5]	Potency [6]	Potency [7]	Potency [8]	Potency [9]
14	O=C(O)c1ccc(Nc2ncc3c(n2)-c2ccc(Cl)cc2C(c2c(F)cccc2F)=NC3)cc1	active: 3.72 µM	active: 0.296 µM	–	active: 0.743 µM	inconclusive: 9.35 µM [cytotoxic, partial curve, poor fit]	–	inconclusive: 0.209 µM [cytotoxic, full curve]	–	inactive
15	C[C@H](NC(=O)C(C#N)=Cc1cccc(Br)n1)c1ccccc1	active: 4.18 µM	active: 4.69 µM	active: 2.35 µM	inconclusive: 2.96 µM [cytotoxic, full curve, poor fit]	–	–	–	–	–
